Our source for the binding values is article PMC10716017.

Amino acid sequences for entries named in this document (tags omitted).
UniProt P17426: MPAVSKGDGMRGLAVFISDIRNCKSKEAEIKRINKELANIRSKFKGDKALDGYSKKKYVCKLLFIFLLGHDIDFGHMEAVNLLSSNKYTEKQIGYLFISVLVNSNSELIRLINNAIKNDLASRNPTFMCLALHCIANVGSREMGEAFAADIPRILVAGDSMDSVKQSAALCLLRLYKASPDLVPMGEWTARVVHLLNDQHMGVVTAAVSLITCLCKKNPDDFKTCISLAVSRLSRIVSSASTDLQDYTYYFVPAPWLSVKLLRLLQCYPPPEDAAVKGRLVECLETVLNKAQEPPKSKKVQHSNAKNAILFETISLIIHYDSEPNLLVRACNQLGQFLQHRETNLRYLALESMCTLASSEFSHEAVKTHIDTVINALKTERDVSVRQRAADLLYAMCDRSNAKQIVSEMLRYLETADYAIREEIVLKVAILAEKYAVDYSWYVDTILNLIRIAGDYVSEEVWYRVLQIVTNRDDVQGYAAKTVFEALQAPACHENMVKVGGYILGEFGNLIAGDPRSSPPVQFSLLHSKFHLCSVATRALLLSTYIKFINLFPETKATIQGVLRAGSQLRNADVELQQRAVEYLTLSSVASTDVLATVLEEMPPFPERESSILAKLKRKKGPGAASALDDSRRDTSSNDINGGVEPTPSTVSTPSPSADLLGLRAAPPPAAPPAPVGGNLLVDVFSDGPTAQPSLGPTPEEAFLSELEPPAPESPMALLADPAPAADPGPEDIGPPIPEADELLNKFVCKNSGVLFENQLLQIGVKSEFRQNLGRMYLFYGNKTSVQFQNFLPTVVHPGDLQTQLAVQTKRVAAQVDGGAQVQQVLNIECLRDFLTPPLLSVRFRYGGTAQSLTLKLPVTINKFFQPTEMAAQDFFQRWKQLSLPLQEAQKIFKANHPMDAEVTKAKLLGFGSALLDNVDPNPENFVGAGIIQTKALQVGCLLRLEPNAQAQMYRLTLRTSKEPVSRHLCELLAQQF
UniProt P58854: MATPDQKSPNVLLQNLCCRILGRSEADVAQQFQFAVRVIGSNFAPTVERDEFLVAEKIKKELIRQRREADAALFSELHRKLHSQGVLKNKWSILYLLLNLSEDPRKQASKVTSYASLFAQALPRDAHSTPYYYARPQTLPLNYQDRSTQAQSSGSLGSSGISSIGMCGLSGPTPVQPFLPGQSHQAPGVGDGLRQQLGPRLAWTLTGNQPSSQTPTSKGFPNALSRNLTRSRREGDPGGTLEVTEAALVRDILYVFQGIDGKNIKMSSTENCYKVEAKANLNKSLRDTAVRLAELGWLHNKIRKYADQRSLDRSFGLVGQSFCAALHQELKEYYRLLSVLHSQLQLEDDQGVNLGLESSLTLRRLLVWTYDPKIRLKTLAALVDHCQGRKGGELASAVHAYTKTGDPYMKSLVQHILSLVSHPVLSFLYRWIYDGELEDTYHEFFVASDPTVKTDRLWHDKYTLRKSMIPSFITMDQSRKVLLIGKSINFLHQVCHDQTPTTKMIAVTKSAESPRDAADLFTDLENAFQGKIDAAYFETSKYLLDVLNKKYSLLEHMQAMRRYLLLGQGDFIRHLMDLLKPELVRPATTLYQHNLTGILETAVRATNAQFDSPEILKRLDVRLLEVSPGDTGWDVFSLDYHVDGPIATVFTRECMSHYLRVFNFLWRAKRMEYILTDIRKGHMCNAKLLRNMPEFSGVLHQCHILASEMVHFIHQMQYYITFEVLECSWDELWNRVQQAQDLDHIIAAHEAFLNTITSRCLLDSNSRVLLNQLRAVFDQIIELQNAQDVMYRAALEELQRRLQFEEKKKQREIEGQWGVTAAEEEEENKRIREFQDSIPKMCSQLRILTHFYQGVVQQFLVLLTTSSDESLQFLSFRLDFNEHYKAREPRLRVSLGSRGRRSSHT
UniProt Q921G8: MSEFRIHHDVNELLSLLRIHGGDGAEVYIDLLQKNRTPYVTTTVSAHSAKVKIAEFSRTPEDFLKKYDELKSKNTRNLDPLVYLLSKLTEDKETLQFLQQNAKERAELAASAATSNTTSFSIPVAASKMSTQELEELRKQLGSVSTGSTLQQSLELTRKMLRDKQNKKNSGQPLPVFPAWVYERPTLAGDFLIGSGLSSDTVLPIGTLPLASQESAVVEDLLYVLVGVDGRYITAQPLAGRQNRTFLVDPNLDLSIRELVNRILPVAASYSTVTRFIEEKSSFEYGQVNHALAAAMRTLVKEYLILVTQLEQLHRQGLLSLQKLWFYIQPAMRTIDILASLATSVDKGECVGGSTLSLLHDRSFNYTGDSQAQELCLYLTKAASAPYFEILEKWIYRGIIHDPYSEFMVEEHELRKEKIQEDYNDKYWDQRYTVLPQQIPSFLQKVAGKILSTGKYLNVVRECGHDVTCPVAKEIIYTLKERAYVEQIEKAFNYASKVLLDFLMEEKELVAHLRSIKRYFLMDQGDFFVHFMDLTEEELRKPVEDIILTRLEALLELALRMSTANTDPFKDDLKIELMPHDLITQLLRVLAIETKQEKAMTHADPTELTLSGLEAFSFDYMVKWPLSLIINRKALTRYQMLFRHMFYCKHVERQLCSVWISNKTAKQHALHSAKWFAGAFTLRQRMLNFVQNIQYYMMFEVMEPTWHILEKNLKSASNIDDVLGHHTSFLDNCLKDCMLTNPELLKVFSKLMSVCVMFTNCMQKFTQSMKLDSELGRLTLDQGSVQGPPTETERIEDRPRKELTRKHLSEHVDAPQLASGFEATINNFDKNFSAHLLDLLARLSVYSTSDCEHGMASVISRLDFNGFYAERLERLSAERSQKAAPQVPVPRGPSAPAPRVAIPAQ
UniProt Q9D4F8: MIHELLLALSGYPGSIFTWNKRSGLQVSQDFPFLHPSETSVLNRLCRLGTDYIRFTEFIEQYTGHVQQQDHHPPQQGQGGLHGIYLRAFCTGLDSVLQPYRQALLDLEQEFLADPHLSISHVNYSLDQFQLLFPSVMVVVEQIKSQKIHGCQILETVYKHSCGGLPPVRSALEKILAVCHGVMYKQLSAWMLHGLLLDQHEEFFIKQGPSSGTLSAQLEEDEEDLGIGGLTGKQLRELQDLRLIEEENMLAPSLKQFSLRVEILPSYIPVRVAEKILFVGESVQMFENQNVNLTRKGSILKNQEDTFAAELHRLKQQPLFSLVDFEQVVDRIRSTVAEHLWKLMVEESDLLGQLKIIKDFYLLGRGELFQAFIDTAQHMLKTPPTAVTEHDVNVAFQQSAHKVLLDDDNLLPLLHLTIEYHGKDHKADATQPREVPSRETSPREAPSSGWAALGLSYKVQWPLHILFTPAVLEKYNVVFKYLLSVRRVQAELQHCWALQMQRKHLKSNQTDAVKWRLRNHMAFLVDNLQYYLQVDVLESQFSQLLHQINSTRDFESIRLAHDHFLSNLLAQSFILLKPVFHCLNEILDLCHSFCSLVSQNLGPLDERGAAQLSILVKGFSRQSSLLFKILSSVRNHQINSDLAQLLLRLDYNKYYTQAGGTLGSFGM

In assay [1] the target is AP-2α subunit of the AP-2 complex (mouse (endogenous in cortex)) (UniProt P17426). Description: co-IP; endogenous proteins, embryonic mouse cortex lysate (E12.5 / E12-14 in results and legends, E14-15 in the methods); antibody-coated Dynabeads Protein G, IgG as control; Co-IP buffer (50 mM Tris-HCl pH 7.4, 100 mM NaCl, 1% NP-40, 2 mM MgCl2), overnight at 4°C; detection by immunoblot. For orientation: A western blot detects proteins with antibodies after separation by electrophoresis.

Assay [2] has the same target. As to the kind of experiment: co-IP; endogenous proteins, cortex lysate of 8-wk-old mice; antibody-coated Dynabeads Protein G, IgG as control; Co-IP buffer (50 mM Tris-HCl pH 7.4, 100 mM NaCl, 1% NP-40, 2 mM MgCl2), overnight at 4°C; detection by immunoblot.
The target in assay [3] is GCP3 component of γ-TuRC (mouse (endogenous in cortex)) (UniProt P58854). Described as above.
The target of assay [4] is GCP2 component of γ-TuRC (mouse (endogenous in cortex)) (UniProt Q921G8). The assay is described as above.
Assay [5] has the same target. Description: co-IP; endogenous proteins, embryonic mouse cortex lysate (E12.5 / E12-14 in results and legends, E14-15 in the methods); antibody-coated Dynabeads Protein G, IgG as control; Co-IP buffer (50 mM Tris-HCl pH 7.4, 100 mM NaCl, 1% NP-40, 2 mM MgCl2), overnight at 4°C; detection by immunoblot.

No constants are given. Whether binding was seen depends on the method and setting. In cells and extracts the contact can be indirect. Some binding calls cover weakened binding; strength is not graded here.

Consider “GCP4 component of γ-TuRC (from UniProt Q9D4F8 1-667)”, for which, in assay [1], the binding result is given as “binds”.

As for “GCP3 component of γ-TuRC (from UniProt P58854 1-905)”, the binding entry in assay [2] and in assay [1] was “binds” in each case.

“GCP2 component of γ-TuRC (from UniProt Q921G8 1-905)”: the binding result in assay [2] and in assay [3] was “binds” in each case.

For the substance “AP-2α subunit of the AP-2 complex (from UniProt P17426 1-977)”, the binding entry in assay [3], in assay [4] and in assay [5] was “binds” throughout.
